From PubChem BioAssay AID540276 (National Center for Advancing Translational Sciences (NCATS), 2011)
About 5,400 (1.8%) of roughly 300,000 compounds were called active. The inconclusive results got no clear call from the source; some entries with a clear call stand among them for comparison. Calls come from the whole dose curve; tested in HEK293 cells. A potency beside an inconclusive call is a rough fit, not a confirmed value.

Assay: qHTS for inhibitors of binding or entry into cells for Marburg Virus
Conditions: Marburg virus pseudotyped entry inhibition, cell reporter; series mostly up to 37.8 µM
Potency is the fitted concentration of half-maximal effect.

SMILES	Potency
OCC1CCCN(C(=S)Nc2ccc(Oc3ccccc3)cc2)C1 (stereo not drawn)	inconclusive: 0.562 µM [activator, partial curve, poor fit]
CC1(C)N=C(SCC(=O)Nc2ccccc2)C(c2ccc(Cl)cc2)=N1	inconclusive: 20.6 µM [inhibitor, partial curve, poor fit]
O=c1[nH]nc(Cc2ccc(-c3ccccc3Cl)o2)c2ccccc12	inconclusive: 3.66 µM [inhibitor, partial curve, poor fit]
CC1CCN(C(=O)Cn2c(=O)n(Cc3ccco3)c(=O)c3sccc32)CC1	inactive
O=S(=O)(CCc1nc2ccccc2s1)c1ccc2ccccc2c1	inactive
CCOC(=O)Cn1nnnc1CN(CCc1ccccc1)Cc1cc2cc(CC)ccc2[nH]c1=O	inconclusive: 4.11 µM [inhibitor, single point]
C#CCCCO/N=C1\C[C@@H](O)[C@@H](O)[C@@H]2[C@@H]3C(=O)N(c4ccc(F)cc4F)C(=O)[C@@H]3CC[C@H]12	inactive
COc1ccc(-n2nc(C(=O)Nc3ccc(C)cn3)c3c4ccccc4n(C)c3c2=O)cc1	inactive
Cc1ccc(-n2cc(-c3ccccc3)nc2S(=O)(=O)CC(=O)Nc2ccc(F)cc2)cc1	inconclusive: 7.08 µM [activator, partial curve, poor fit]
COc1ccc(C(=O)Oc2c(CN3CCOCC3)cc(Cl)c3cccnc23)cc1	inconclusive: 14.1 µM [inhibitor, partial curve, poor fit]
CN(C)c1ccc(C(C(=O)NC2CCCC2)N(C(=O)c2ccco2)C2CC2)cc1 (stereo not drawn)	inactive
CCCCSCCCNC(=O)c1cn(C)c2ccc(S(=O)(=O)N3CCCCC3)cc2c1=O	inactive
O=C(N/N=C/c1c(Cl)cccc1Cl)C(=O)NC1CC1	inconclusive: 3.55 µM [inhibitor, single point]
CC(C)CC(C(=O)N1CCc2ccccc2C1)N1C(=O)c2ccccc2C1=O (stereo not drawn)	inconclusive: 35.5 µM [inhibitor, single point]
CCc1nc2nc(C)c(NS(=O)(=O)c3cccs3)c(=O)n2[nH]1	inconclusive: 2 µM [inhibitor, partial curve, poor fit]
COc1ccc(Cc2nnc(NC(=O)c3cccs3)s2)cc1	inactive
O=C(Nn1cc(C(=O)N2CCN(c3ccccc3F)CC2)c2ccccc2c1=O)c1cnccn1	inconclusive: 3.16 µM [inhibitor, partial curve, poor fit]
CSc1nnc(NC(=O)c2nc(S(=O)(=O)Cc3ccccc3F)ncc2Cl)s1	inconclusive: 28.2 µM [inhibitor, single point]

Sorted by heavy-atom count (falling): 3 of the compounds above
SMILES	Potency
O=C(Nn1cc(C(=O)N2CCN(c3ccccc3F)CC2)c2ccccc2c1=O)c1cnccn1	inconclusive: 3.16 µM [inhibitor, partial curve, poor fit]
C#CCCCO/N=C1\C[C@@H](O)[C@@H](O)[C@@H]2[C@@H]3C(=O)N(c4ccc(F)cc4F)C(=O)[C@@H]3CC[C@H]12	inactive
CC1(C)N=C(SCC(=O)Nc2ccccc2)C(c2ccc(Cl)cc2)=N1	inconclusive: 20.6 µM [inhibitor, partial curve, poor fit]
